{"sequences": {"note": "Chains of the proteins cited; added tags and fusions are not shown. Where a name states a change or a piece, a line headed by the entry shows the natural chain unless it says otherwise. Chains listed by the source or under a name are the forms on record and can include a tag or linker.", "UniProt O43869": "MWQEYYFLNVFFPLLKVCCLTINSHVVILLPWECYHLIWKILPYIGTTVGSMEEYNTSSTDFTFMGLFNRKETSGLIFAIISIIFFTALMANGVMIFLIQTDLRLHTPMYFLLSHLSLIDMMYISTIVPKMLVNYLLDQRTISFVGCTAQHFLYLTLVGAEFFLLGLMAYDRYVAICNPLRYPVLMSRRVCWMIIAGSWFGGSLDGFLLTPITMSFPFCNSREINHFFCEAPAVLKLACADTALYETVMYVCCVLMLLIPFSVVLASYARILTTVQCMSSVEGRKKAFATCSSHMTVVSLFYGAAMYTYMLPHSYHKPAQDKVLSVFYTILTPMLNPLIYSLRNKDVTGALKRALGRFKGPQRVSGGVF", "OR2M7, as listed by the source": "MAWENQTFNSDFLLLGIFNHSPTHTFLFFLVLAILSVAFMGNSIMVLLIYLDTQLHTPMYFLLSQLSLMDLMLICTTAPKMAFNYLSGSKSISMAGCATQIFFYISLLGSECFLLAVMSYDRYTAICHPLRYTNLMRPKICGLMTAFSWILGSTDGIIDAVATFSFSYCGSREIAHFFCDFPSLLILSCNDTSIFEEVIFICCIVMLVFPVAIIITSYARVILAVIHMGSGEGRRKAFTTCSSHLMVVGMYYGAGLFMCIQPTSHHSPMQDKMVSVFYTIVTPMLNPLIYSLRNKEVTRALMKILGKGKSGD"}, "source": "the M2OR odorant receptor database", "conditions_in_all_cases": "stereoisomer not certain", "key": {"OR2M7 (Homo sapiens)": {"target": "T1, OR2M7 (Homo sapiens) (UniProt Q8NG81)", "T1 sequence (whole entry)": "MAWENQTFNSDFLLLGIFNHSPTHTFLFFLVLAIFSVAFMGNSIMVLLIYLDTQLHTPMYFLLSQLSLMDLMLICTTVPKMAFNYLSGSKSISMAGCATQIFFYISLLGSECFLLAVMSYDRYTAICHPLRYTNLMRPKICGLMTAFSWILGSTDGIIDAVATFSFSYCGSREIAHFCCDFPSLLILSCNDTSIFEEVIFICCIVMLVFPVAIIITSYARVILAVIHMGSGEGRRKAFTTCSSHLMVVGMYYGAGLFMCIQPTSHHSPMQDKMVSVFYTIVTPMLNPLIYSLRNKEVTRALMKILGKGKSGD", "outline": "(§1)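 Each entry records the cell line, G-protein, co-transfected protein and tags used. Methods varied with the source, often transient luciferase assays in mammalian cell lines. A receptor–molecule pair is called responsive (active) if the original authors judged its signal statistically different from baseline and non-responsive (inactive) otherwise.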"}, "OR2M7 [1]": {"tested_on": "T2, OR2M7", "T2 sequence (whole entry)": "T1 sequence (whole entry) with F35L, V78A, C178F", "outline": "as §1"}, "OR2M7 [2]": {"tested_on": "T3, OR2M7", "T3 sequence (whole entry)": "T1 sequence (whole entry) with F35L, V78A, C178F, D191N", "outline": "as §1", "remark": "listed apart in the source"}, "OR2S1": {"tested_on": "T4, OR2S1", "T4 sequence (whole entry)": "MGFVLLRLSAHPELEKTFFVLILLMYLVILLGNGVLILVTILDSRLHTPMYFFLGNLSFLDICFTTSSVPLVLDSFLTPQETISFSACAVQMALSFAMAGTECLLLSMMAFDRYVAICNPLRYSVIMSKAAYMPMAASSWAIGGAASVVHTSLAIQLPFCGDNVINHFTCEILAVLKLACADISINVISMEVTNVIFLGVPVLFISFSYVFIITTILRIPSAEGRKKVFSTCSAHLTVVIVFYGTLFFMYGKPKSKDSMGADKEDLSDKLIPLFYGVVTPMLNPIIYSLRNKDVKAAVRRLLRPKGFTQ", "outline": "as §1"}, "OR2T10 (Homo sapiens)": {"target": "T5, OR2T10 (Homo sapiens) (UniProt Q8NGZ9)", "T5 sequence (whole entry)": "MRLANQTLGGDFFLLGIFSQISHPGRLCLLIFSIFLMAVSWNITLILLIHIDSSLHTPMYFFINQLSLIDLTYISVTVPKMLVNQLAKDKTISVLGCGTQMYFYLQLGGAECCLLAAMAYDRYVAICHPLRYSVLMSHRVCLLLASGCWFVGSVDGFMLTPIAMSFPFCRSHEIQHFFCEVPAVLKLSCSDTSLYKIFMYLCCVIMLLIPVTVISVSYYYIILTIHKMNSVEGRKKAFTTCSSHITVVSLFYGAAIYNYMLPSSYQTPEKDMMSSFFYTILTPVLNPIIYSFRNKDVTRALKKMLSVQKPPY", "outline": "as §1"}, "OR2T1 (Homo sapiens)": {"target": "OR2T1 (Homo sapiens) (UniProt O43869)", "outline": "as §1"}}, "note": "Residue numbers refer to the chain shown, from its start. Only a part is listed here, and it is no random draw. The calls were merged from several studies; some rest on single wells. The list shows a part of the results."}
{"smiles": "COc1cc(C=O)ccc1O", "values": [{"measurement": "odorant receptor agonist call", "setting": "OR2M7 (Homo sapiens)", "result": "inactive"}, {"measurement": "odorant receptor agonist call", "setting": "OR2M7 [1]", "result": "inactive"}, {"measurement": "odorant receptor agonist call", "setting": "OR2M7 [2]", "result": "inactive"}, {"measurement": "odorant receptor agonist call", "setting": "OR2S1", "result": "inactive"}]}
{"smiles": "CCCCO", "values": [{"measurement": "odorant receptor agonist call", "setting": "OR2M7 (Homo sapiens)", "result": "inactive"}, {"measurement": "odorant receptor agonist call", "setting": "OR2M7 [1]", "result": "inactive"}, {"measurement": "odorant receptor agonist call", "setting": "OR2M7 [2]", "result": "inactive"}, {"measurement": "odorant receptor agonist call", "setting": "OR2S1", "result": "inactive"}, {"measurement": "odorant receptor agonist call", "setting": "OR2T10 (Homo sapiens)", "result": "inactive"}]}
{"smiles": "C=C(C)C1CC=C(C)C(=O)C1", "note": "(configuration not stated)", "values": [{"measurement": "odorant receptor agonist call", "setting": "OR2M7 (Homo sapiens)", "result": "inactive"}]}
{"smiles": "CCCCCCCCOC(C)=O", "values": [{"measurement": "odorant receptor agonist call", "setting": "OR2M7 (Homo sapiens)", "result": "inactive"}, {"measurement": "odorant receptor agonist call", "setting": "OR2M7 [1]", "result": "inactive"}, {"measurement": "odorant receptor agonist call", "setting": "OR2M7 [2]", "result": "inactive"}, {"measurement": "odorant receptor agonist call", "setting": "OR2S1", "result": "inactive"}, {"measurement": "odorant receptor agonist call", "setting": "OR2T10 (Homo sapiens)", "result": "inactive"}]}
{"smiles": "CCCC(=O)O", "values": [{"measurement": "odorant receptor agonist call", "setting": "OR2M7 (Homo sapiens)", "result": "inactive"}, {"measurement": "odorant receptor agonist call", "setting": "OR2M7 [1]", "result": "inactive"}, {"measurement": "odorant receptor agonist call", "setting": "OR2M7 [2]", "result": "inactive"}, {"measurement": "odorant receptor agonist call", "setting": "OR2S1", "result": "inactive"}, {"measurement": "odorant receptor agonist call", "setting": "OR2T1 (Homo sapiens)", "result": "active"}, {"measurement": "odorant receptor agonist call", "setting": "OR2T10 (Homo sapiens)", "result": "inactive"}]}
{"smiles": "CC(=O)OC(C)(C)C1CC=C(C)CC1", "note": "(configuration not stated)", "values": [{"measurement": "odorant receptor agonist call", "setting": "OR2M7 (Homo sapiens)", "result": "inactive"}, {"measurement": "odorant receptor agonist call", "setting": "OR2M7 [1]", "result": "inactive"}, {"measurement": "odorant receptor agonist call", "setting": "OR2M7 [2]", "result": "inactive"}, {"measurement": "odorant receptor agonist call", "setting": "OR2S1", "result": "inactive"}]}
{"smiles": "CC(C)C=O", "values": [{"measurement": "odorant receptor agonist call", "setting": "OR2M7 (Homo sapiens)", "result": "inactive"}, {"measurement": "odorant receptor agonist call", "setting": "OR2M7 [1]", "result": "inactive"}, {"measurement": "odorant receptor agonist call", "setting": "OR2M7 [2]", "result": "inactive"}, {"measurement": "odorant receptor agonist call", "setting": "OR2S1", "result": "inactive"}, {"measurement": "odorant receptor agonist call", "setting": "OR2T10 (Homo sapiens)", "result": "inactive"}]}
{"smiles": "COc1cc(C)ccc1O", "values": [{"measurement": "odorant receptor agonist call", "setting": "OR2M7 (Homo sapiens)", "result": "active"}, {"measurement": "odorant receptor agonist call", "setting": "OR2M7 [1]", "result": "inactive"}, {"measurement": "odorant receptor agonist call", "setting": "OR2M7 [2]", "result": "inactive"}, {"measurement": "odorant receptor agonist call", "setting": "OR2S1", "result": "inactive"}, {"measurement": "odorant receptor agonist call", "setting": "OR2T10 (Homo sapiens)", "result": "inactive"}]}
{"smiles": "c1ccc(Oc2ccccc2)cc1", "values": [{"measurement": "odorant receptor agonist call", "setting": "OR2M7 (Homo sapiens)", "result": "inactive"}, {"measurement": "odorant receptor agonist call", "setting": "OR2M7 [1]", "result": "inactive"}, {"measurement": "odorant receptor agonist call", "setting": "OR2M7 [2]", "result": "inactive"}, {"measurement": "odorant receptor agonist call", "setting": "OR2S1", "result": "inactive"}, {"measurement": "odorant receptor agonist call", "setting": "OR2T10 (Homo sapiens)", "result": "inactive"}]}
{"smiles": "CCCCCCCOC(C)=O", "values": [{"measurement": "odorant receptor agonist call", "setting": "OR2M7 (Homo sapiens)", "result": "inactive"}, {"measurement": "odorant receptor agonist call", "setting": "OR2M7 [1]", "result": "inactive"}, {"measurement": "odorant receptor agonist call", "setting": "OR2M7 [2]", "result": "inactive"}, {"measurement": "odorant receptor agonist call", "setting": "OR2S1", "result": "inactive"}, {"measurement": "odorant receptor agonist call", "setting": "OR2T10 (Homo sapiens)", "result": "inactive"}]}
{"smiles": "CC1=NC(C)SC1C", "note": "(configuration not stated)", "values": [{"measurement": "odorant receptor agonist call", "setting": "OR2M7 (Homo sapiens)", "result": "inactive"}, {"measurement": "odorant receptor agonist call", "setting": "OR2M7 [1]", "result": "inactive"}, {"measurement": "odorant receptor agonist call", "setting": "OR2M7 [2]", "result": "inactive"}, {"measurement": "odorant receptor agonist call", "setting": "OR2S1", "result": "inactive"}, {"measurement": "odorant receptor agonist call", "setting": "OR2T10 (Homo sapiens)", "result": "inactive"}]}
{"smiles": "CCCCCCOC(=O)CCC", "values": [{"measurement": "odorant receptor agonist call", "setting": "OR2M7 (Homo sapiens)", "result": "inactive"}, {"measurement": "odorant receptor agonist call", "setting": "OR2M7 [1]", "result": "inactive"}, {"measurement": "odorant receptor agonist call", "setting": "OR2M7 [2]", "result": "inactive"}, {"measurement": "odorant receptor agonist call", "setting": "OR2S1", "result": "inactive"}, {"measurement": "odorant receptor agonist call", "setting": "OR2T10 (Homo sapiens)", "result": "inactive"}]}
{"smiles": "CCCCCCC=O", "values": [{"measurement": "odorant receptor agonist call", "setting": "OR2M7 (Homo sapiens)", "result": "inactive"}]}
{"smiles": "O=C1CCCCCCCCCCCC(=O)OCCO1", "values": [{"measurement": "odorant receptor agonist call", "setting": "OR2M7 (Homo sapiens)", "result": "inactive"}, {"measurement": "odorant receptor agonist call", "setting": "OR2M7 [1]", "result": "active"}, {"measurement": "odorant receptor agonist call", "setting": "OR2M7 [2]", "result": "inactive"}, {"measurement": "odorant receptor agonist call", "setting": "OR2S1", "result": "inactive"}, {"measurement": "odorant receptor agonist call", "setting": "OR2T10 (Homo sapiens)", "result": "inactive"}]}
{"smiles": "CC(=O)OC1CC2CCC1(C)C2(C)C", "note": "(configuration not stated)", "values": [{"measurement": "odorant receptor agonist call", "setting": "OR2M7 (Homo sapiens)", "result": "inactive"}, {"measurement": "odorant receptor agonist call", "setting": "OR2M7 [1]", "result": "inactive"}, {"measurement": "odorant receptor agonist call", "setting": "OR2M7 [2]", "result": "inactive"}, {"measurement": "odorant receptor agonist call", "setting": "OR2S1", "result": "inactive"}, {"measurement": "odorant receptor agonist call", "setting": "OR2T10 (Homo sapiens)", "result": "inactive"}]}
{"smiles": "CCCCCCCC=CC=O", "values": [{"measurement": "odorant receptor agonist call", "setting": "OR2M7 (Homo sapiens)", "result": "inactive"}, {"measurement": "odorant receptor agonist call", "setting": "OR2M7 [1]", "result": "active"}, {"measurement": "odorant receptor agonist call", "setting": "OR2M7 [2]", "result": "inactive"}, {"measurement": "odorant receptor agonist call", "setting": "OR2S1", "result": "inactive"}, {"measurement": "odorant receptor agonist call", "setting": "OR2T10 (Homo sapiens)", "result": "inactive"}]}
{"smiles": "CC(C)(O)CCCC1=CCC(C=O)CC1", "note": "(configuration not stated)", "values": [{"measurement": "odorant receptor agonist call", "setting": "OR2M7 (Homo sapiens)", "result": "inactive"}]}
{"smiles": "CC(C)C(=O)O", "values": [{"measurement": "odorant receptor agonist call", "setting": "OR2M7 (Homo sapiens)", "result": "inactive"}, {"measurement": "odorant receptor agonist call", "setting": "OR2M7 [1]", "result": "inactive"}, {"measurement": "odorant receptor agonist call", "setting": "OR2M7 [2]", "result": "inactive"}, {"measurement": "odorant receptor agonist call", "setting": "OR2S1", "result": "inactive"}, {"measurement": "odorant receptor agonist call", "setting": "OR2T10 (Homo sapiens)", "result": "inactive"}]}
